Measured values published in paper PMC6487834.
These are yes or no findings as the source states them, for the method shown. Binding seen in cells or lysates may run through a third protein. Some results given as binding are weak or reduced against the parent protein; the word gives no strength. Tags and fused reporters may be left off the sequences shown.

Columns and labels:
[1] = target: T1, U2AF56 Associated Protein 56 (UAP56a/b), endogenous (Arabidopsis thaliana (endogenous in flowers)) (UniProt Q56XG6); assay: co-IP; anti-UAP56 serum (1/500 or 1/1000) with Protein G Dynabeads on pDRM2-DRM2-FLAG-HA flower extract in EB150 buffer, 4 °C; DRM2 detected with anti-HA-HRP
T1 sequence: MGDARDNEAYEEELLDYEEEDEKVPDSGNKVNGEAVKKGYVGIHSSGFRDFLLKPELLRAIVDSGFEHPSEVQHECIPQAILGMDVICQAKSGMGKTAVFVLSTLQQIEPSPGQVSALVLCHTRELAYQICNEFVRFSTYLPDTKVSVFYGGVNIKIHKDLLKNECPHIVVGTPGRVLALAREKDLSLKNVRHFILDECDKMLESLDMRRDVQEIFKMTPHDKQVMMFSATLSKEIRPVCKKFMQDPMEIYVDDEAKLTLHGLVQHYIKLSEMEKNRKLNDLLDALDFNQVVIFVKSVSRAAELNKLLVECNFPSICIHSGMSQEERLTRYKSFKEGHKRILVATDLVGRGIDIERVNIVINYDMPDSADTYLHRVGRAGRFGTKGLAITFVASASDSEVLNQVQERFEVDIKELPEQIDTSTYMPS

[2] = target: T2, GST–UAP56 recombinant protein (Arabidopsis thaliana) (UniProt Q56XG6); assay: pull-down; 60 µg purified GST–UAP56 immobilised on glutathione Sepharose 4B, EB150 buffer (50 mM Tris/HCl pH 7.5, 150 mM NaCl, 5 mM MgCl2, 0.1% NP40), pDRM2-DRM2-FLAG-HA flower whole-cell extract, 3 h at 4 °C, eluted with 10 mM reduced glutathione, anti-HA blot; only the target purified
T2 sequence: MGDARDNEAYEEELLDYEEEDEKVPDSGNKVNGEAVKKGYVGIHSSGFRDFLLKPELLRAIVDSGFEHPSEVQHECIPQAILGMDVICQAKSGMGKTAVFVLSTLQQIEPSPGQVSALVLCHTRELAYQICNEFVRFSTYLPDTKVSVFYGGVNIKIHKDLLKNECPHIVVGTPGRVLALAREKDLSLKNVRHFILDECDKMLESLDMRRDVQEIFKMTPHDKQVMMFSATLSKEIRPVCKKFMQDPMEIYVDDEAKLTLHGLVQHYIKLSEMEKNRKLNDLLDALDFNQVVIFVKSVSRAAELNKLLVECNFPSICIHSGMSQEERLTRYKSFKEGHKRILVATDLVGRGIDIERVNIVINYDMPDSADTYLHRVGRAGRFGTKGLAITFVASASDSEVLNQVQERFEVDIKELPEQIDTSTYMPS

B1: DRM2-FLAG-HA (pDRM2-DRM2-FLAG-HA in drm1drm2) (enzyme, UniProt Q9M548 1-626)
chain: MVIWNNDDDDFLEIDNFQSSPRSSPIHAMQCRVENLAGVAVTTSSLSSPTETTDLVQMGFSDEVFATLFDMGFPVEMISRAIKETGPNVETSVIIDTISKYSSDCEAGSSKSKAIDHFLAMGFDEEKVVKAIQEHGEDNMEAIANALLSCPEAKKLPAAVEEEDGIDWSSSDDDTNYTDMLNSDDEKDPNSNENGSKIRSLVKMGFSELEASLAVERCGENVDIAELTDFLCAAQMAREFSEFYTEHEEQKPRHNIKKRRFESKGEPRSSVDDEPIRLPNPMIGFGVPNEPGLITHRSLPELARGPPFFYYENVALTPKGVWETISRHLFEIPPEFVDSKYFCVAARKRGYIHNLPINNRFQIQPPPKYTIHDAFPLSKRWWPEWDKRTKLNCILTCTGSAQLTNRIRVALEPYNEEPEPPKHVQRYVIDQCKKWNLVWVGKNKAAPLEPDEMESILGFPKNHTRGGGMSRTERFKSLGNSFQVDTVAYHLSVLKPIFPHGINVLSLFTGIGGGEVALHRLQIKMKLVVSVEISKVNRNILKDFWEQTNQTGELIEFSDIQHLTNDTIEGLMEKYGGFDLVIGGSPCNNLAGGNRVSRVGLEGDQSSLFFEYCRILEVVRARMRGS
- binding [1]: binds
- binding [2]: binds
